The target in test [1] is T1, GFP-CRN7 WT (human Coronin7, full length, GFP on its N-terminus) (human) (UniProt P57737).
T1 sequence: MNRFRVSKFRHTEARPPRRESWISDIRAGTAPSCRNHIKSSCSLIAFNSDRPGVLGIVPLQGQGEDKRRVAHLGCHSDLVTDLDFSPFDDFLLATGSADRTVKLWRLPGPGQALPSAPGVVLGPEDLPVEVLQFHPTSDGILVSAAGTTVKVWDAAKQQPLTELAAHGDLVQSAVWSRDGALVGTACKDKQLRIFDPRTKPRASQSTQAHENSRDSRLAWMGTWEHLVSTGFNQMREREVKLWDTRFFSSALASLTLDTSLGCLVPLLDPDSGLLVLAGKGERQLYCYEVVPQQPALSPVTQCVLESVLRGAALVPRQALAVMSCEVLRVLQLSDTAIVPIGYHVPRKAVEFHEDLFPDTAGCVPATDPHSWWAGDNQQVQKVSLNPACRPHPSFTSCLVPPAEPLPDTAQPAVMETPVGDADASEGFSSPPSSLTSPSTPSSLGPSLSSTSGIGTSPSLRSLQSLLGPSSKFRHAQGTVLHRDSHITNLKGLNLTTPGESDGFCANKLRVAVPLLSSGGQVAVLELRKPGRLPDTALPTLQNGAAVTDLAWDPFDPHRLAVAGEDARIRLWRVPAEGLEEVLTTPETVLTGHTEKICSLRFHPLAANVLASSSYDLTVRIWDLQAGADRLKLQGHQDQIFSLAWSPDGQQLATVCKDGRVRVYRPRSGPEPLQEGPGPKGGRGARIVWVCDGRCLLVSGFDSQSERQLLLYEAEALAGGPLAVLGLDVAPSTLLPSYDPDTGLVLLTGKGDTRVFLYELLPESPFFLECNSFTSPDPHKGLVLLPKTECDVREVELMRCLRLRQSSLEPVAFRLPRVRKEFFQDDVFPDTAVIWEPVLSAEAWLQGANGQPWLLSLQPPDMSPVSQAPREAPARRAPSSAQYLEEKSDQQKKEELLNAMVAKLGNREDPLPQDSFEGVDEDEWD
The test can be described thus: co-IP; lysates of HEK293T cells transiently co-expressing GFP-CRN7 (or GFP) and Myc-tagged Cdc42 CA or DN; GFP microbeads; Cdc42 detected with anti-Myc mAb 9E10.

The chains behind the UniProt entries cited, without tags or fusion partners. Where a name states a change or a piece, a line headed by the entry shows the natural chain unless it says otherwise.
UniProt P60953: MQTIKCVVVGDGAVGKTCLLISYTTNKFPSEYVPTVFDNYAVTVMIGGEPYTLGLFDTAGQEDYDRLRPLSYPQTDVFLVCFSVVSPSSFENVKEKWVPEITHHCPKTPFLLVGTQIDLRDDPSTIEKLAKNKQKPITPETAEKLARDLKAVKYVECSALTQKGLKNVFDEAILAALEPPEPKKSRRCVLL
UniProt O00401: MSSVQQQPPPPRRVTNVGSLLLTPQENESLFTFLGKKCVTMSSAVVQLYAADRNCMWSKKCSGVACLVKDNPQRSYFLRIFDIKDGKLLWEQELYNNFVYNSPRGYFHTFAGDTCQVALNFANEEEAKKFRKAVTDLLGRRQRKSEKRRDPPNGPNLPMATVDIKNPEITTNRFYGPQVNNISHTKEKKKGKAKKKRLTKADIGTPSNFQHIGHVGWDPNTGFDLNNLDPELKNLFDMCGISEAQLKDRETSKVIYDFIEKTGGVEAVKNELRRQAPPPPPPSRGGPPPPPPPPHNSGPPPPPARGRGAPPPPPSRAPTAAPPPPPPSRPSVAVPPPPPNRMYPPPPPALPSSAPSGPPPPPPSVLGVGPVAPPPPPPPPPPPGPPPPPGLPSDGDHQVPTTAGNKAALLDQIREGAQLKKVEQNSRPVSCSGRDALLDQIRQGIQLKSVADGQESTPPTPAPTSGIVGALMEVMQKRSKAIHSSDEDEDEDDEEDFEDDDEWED

Test [2] deals with T1, GFP-CRN7 WT (human Coronin7, full length, GFP on its N-terminus) (human). The test can be described thus: co-IP; GFP microbeads precipitate GFP-CRN7 or its NT and CT fragments from HEK293T cell extracts; endogenous N-WASP detected with rabbit polyclonal anti-N-WASP.
Test [3] concerns the target GST-Cdc42 constitutively active (CA/Q61L), preloaded with GTPγS (UniProt P60953). The experiment in a line: pull-down; Glutathione-Sepharose beads coated with GST alone or GST-GTPase fusions pre-loaded with GDP (DN) or GTPγS (CA), incubated with lysates of HEK293T cells expressing GFP-CRN7 WT or CRIB mutants; blot with GFP mAb K3-184-2 or anti-N-WASP; ImageJ quantification, input set at 100%; only the target purified.

The target in test [4] is GST-Cdc42 dominant negative (DN/T17N), preloaded with GDP (UniProt P60953). The test is described as above.

Results are given in words; binding and its absence hold for the method and conditions named. In cells and extracts the contact can be indirect. Some binding calls cover weakened binding; strength is not graded here. For some of these results: Sequences can lack the tags named with a protein.

Take “Myc-tagged Cdc42 DN (T17N) (from UniProt P60953 1-191) (enzyme)”: in test [1], the binding result is on record as “binds”.
As for “endogenous N-WASP (neural WASP) of HEK293T cells (from UniProt O00401 1-505)”, the binding result was “binds” in test [2], “binds” in test [3] and “no binding” in test [4].

Values taken from publication PMC4855144.
